Measured values reported in patent US8497245B2, “Trypsin-like serine protease inhibitors, their preparation and use as selective inhibitors of the clotting factors IIa and Xa” (The Medicines Company (Leipzig) GmbH, priority 2010, dated 2013).
Where a name gives a salt, the structure may show the parent alone. Some results were stated once for a whole list of compounds, not compound by compound.

Tested on: thrombin and factor Xa
Assay: Thrombin and factor Xa inhibition compared with comparator proteases
Format: biochemical, human
Conditions: from Table 7 Ki values

SMILES	fold greater inhibitory activity towards thrombin and factor Xa than towards any of the other comparator proteases
NCc1ccc(Cl)cc1CNC(=O)[C@@H]1CCCN1C(=O)[C@@H](CCC(=O)N1CCOCC1)NS(=O)(=O)Cc1ccccc1 [Compound 2.1, Bzls-D-Glu(morpholino)-L-Pro-Amb(2-AMe-5-Cl)×1 TFA]	at least 1000 fold
NCc1ccc(Cl)cc1CNC(=O)[C@@H]1C[C@H](N)CN1C(=O)[C@@H](CC(=O)N1CCCCC1)NS(=O)(=O)Cc1ccccc1 [Compound 2.6]	at least 1000 fold
NCc1ccc(Cl)cc1CNC(=O)[C@@H]1CCCN1C(=O)[C@@H](CC(=O)N1CCCC1)NS(=O)(=O)Cc1ccccc1 [Compound 2.8]	at least 1000 fold
NCc1ccc(Cl)cc1CNC(=O)[C@@H]1CNCCN1C(=O)[C@@H](CC(=O)N1CCCCC1)NS(=O)(=O)Cc1ccccc1 [Compound 2.13]	at least 1000 fold
NCc1ccc(Cl)cc1CNC(=O)[C@@H]1C[C@H](N)CN1C(=O)[C@@H](CCC(=O)N1CCOCC1)NS(=O)(=O)Cc1ccccc1 [Compound 2.24]	at least 1000 fold
NCc1ccc(Cl)cc1CNC(=O)[C@@H]1CCCN1C(=O)[C@@H](CC(=O)N1CCOCC1)NS(=O)(=O)Cc1ccccc1 [Compound 2.36]	at least 1000 fold
NCc1ccc(Cl)cc1CNC(=O)[C@@H]1CCCN1C(=O)[C@@H](CC(=O)N1CCCCC1)NS(=O)(=O)Cc1ccccc1 [Compound 2.41]	at least 1000 fold
NCc1ccc(Cl)cc1CNC(=O)[C@@H]1CCN1C(=O)[C@@H](CC(=O)N1CCCCC1)NS(=O)(=O)Cc1ccccc1 [Compound 2.45]	at least 1000 fold
